# Data reported in patent publication US5856309A, “Amidinopyrroline derivatives, processes for their production and pharmaceutical agents containing these compounds” (Boehringer Mannheim GmbH, priority 1997, dated 1999).
# Chains of the proteins cited; added tags and fusions are not shown. Residues count along the entry.
# UniProt P05106, 27-788: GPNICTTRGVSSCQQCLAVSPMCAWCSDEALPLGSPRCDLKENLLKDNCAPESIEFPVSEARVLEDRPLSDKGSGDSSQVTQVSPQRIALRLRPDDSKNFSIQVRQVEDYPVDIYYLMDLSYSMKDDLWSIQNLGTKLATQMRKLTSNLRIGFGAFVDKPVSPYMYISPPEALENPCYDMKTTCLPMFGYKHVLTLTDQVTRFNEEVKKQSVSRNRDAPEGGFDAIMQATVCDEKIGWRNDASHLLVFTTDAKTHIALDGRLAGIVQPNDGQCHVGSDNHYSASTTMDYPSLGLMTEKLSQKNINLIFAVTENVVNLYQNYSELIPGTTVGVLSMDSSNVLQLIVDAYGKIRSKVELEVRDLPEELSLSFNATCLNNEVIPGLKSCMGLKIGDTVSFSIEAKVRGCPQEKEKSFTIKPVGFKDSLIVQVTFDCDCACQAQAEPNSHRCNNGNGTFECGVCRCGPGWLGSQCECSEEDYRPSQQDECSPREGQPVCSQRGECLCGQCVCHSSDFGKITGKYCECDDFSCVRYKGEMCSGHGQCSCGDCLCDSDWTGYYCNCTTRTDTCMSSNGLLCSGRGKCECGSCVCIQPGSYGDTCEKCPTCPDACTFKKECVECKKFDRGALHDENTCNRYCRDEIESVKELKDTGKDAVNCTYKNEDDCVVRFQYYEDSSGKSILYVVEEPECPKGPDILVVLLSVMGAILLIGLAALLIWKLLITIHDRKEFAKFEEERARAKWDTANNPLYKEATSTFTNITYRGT
# UniProt P08514, 32-887 limits assumed: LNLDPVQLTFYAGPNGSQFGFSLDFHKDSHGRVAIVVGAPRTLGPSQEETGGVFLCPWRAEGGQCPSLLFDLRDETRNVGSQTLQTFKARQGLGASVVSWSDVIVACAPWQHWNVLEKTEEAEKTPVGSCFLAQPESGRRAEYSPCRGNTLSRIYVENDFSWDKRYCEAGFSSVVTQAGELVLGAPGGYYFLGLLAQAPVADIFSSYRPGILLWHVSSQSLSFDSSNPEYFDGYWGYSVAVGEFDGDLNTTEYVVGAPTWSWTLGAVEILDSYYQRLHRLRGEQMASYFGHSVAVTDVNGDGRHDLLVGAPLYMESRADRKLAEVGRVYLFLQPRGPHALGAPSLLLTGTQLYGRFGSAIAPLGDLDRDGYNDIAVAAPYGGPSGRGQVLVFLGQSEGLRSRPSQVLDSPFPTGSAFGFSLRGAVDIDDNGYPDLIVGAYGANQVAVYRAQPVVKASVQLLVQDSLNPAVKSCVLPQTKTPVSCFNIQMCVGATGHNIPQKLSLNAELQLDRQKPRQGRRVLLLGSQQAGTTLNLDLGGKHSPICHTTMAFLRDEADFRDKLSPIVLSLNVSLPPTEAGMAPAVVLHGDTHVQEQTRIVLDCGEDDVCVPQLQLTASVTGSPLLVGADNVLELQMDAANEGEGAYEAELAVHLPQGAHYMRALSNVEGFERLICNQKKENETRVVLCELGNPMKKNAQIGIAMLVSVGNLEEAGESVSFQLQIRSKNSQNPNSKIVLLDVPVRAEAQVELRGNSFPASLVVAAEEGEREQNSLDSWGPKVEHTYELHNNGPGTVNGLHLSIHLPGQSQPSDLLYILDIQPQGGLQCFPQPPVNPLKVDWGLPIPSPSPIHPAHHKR
# UniProt P08514, 891-1039 partner limits assumed: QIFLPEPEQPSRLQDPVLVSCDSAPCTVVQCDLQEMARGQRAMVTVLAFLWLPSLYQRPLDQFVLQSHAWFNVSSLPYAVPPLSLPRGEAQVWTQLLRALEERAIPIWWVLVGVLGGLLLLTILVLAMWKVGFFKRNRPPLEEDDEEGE
# At least one structure is not confirmed: it was looked up by name or label, or the drawing left a doubt.
# Target: isolated activated GpIIb/IIIa receptor (Homo sapiens, UniProt P05106+P08514)
# Experiment: GpIIb/IIIa fibrinogen Elisa
# Conditions: inhibition of fibrinogen binding to coated GpIIb/IIIa receptor, optical density at 405 nm
# Protocol: The GpIIb/IIIa fibrinogen Elisa is a modification of assays which are described in the following literature: Nachman, R. L. & Leung, L. L. K. (1982): J. Clin. Invest. 69: 263-269 and Wright, P. S. et al. (1993): Biochem. J. 293:263-267.
# Microtiter plates were coated overnight with 2 μg/ml isolated activated GpIIb/IIIa receptor. After unbound receptor had been removed by washing several times the surface of the plates is blocked with 1% casein and it is washed again. The test substance is added at the required concentrations and the plates are incubated for 10 minutes while shaking. The natural ligand of the gpIIb/IIIa receptor, fibrinogen, is added. After incubating for 1 hour unbound fibrinogen is removed by washing several times and the bound fibrinogen is determined by means of a peroxidase-conjugated, anti-fibrinogen monoclonal antibody by measuring the optical density at 405 nm in an ELISA instrument. The inhibition of a fibrinogen-GpIIb/IIIa interaction results in a low optical density. The IC50 value was determined by a concentration/effect curve.
smiles,measurement,value
"N=C(N)N1CC=C(CC(N)C(=O)NCC(=O)N[C@@H](CC(=O)O)C(=O)N[C@@H](Cc2ccccc2)C(N)=O)C1 (stereo partly drawn) [Example 11, Ada-Gly-Asp-Phe-NH2]",IC50,12.8 µM
